Data as given in paper PMC5355268.
These are yes or no findings as the source states them, for the method shown. In cells and extracts the contact can be indirect. Some binding calls cover weakened binding; strength is not graded here.

The chains behind the UniProt entries cited, without tags or fusion partners. Where a name states a change or a piece, a line headed by the entry shows the natural chain unless it says otherwise.
UniProt Q9UKL0: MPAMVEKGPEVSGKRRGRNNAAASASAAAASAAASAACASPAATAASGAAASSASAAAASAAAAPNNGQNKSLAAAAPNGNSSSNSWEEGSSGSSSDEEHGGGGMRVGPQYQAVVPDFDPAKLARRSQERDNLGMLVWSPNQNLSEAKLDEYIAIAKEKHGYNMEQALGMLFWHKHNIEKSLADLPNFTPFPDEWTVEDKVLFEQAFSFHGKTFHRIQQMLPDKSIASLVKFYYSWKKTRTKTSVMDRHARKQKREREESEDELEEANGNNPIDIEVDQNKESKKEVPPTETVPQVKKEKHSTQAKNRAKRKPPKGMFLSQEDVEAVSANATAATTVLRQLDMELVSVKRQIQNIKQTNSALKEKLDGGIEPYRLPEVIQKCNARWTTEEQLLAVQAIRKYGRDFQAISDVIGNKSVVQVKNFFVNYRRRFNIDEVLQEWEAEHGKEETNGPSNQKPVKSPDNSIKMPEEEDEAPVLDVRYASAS
UniProt P03129: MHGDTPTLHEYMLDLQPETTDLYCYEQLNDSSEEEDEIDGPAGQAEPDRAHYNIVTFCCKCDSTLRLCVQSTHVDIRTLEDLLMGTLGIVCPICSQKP

Target: Co-REST (human (endogenous in C33A)) (UniProt Q9UKL0)
Experiment: co-IP; C33A cells; immunoprecipitation with an antibody against LSD1 or Co-REST, immunoblotting with an antibody against HPV16 E7; protocol only by reference [58]

Substance: HPV16 E7 (from UniProt P03129 1-98)
- binding: binds
